Compound in this assay: Nc1nc2c(ncn2[C@@H]2O[C@H](COP(=O)(O)OP(=O)(O)OP(=O)(O)O)[C@@H](O)[C@H]2O)c(=O)[nH]1 [guanosine triphosphate]
Description: NP40-soluble protein abundance relative to vehicle (solubility fold change) (ratio); higher = more soluble protein in presence of GTP. The gist of the method:
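Jurkat crude lysate prepared with a Dounce homogeniser was treated at eight concentrations spanning 0.1 to 10 mM, 10 min at room temperature then 3 min at 37 °C. Solubilisation with 0.8% NP40 and benzonase and ultracentrifugation preceded TMT labelling of the supernatant for LC-MS/MS. Fold change against the detergent-processed vehicle was determined per replicate from vsn-normalised intensities, across three independent experiments.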

The chains behind the UniProt entries cited, without tags or fusion partners. Where a name states a change or a piece, a line headed by the entry shows the natural chain unless it says otherwise.
UniProt Q8TAG9: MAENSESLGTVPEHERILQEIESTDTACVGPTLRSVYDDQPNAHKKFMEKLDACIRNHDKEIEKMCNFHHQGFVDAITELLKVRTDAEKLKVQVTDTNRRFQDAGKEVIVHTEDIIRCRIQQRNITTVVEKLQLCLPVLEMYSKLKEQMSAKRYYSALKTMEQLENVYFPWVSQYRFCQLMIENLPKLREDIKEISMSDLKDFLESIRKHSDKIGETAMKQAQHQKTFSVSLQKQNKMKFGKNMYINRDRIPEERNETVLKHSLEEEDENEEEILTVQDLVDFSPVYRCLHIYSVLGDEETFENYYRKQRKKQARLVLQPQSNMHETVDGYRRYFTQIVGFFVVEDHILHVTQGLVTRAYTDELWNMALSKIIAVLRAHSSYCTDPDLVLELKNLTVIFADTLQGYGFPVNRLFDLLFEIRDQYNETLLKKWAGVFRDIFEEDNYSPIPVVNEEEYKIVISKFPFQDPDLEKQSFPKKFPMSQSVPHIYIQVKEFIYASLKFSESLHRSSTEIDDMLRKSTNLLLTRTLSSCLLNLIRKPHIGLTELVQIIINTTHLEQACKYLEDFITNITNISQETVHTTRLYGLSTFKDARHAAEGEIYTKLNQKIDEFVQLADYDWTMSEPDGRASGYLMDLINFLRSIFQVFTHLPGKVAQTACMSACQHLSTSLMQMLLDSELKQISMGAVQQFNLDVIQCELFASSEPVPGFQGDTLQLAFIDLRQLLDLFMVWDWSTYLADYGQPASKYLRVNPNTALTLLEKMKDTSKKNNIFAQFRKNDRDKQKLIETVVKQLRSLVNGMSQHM
UniProt Q9UQV4: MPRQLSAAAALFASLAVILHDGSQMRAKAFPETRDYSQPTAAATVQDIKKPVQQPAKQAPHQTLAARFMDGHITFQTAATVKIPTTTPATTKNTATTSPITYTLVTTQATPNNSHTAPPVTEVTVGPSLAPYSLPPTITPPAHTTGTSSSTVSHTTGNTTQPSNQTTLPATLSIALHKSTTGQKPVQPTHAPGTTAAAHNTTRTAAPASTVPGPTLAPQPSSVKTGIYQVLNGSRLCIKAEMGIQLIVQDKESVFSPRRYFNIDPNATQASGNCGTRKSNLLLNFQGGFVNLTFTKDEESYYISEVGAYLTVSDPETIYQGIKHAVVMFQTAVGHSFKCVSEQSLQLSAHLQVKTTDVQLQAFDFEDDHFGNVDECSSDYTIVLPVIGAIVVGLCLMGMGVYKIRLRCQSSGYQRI
UniProt Q9GZZ1: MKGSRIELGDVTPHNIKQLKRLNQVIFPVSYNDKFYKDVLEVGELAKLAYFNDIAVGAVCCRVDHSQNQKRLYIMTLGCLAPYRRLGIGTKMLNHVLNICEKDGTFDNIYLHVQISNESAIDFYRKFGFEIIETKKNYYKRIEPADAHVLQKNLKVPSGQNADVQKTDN
UniProt P52789: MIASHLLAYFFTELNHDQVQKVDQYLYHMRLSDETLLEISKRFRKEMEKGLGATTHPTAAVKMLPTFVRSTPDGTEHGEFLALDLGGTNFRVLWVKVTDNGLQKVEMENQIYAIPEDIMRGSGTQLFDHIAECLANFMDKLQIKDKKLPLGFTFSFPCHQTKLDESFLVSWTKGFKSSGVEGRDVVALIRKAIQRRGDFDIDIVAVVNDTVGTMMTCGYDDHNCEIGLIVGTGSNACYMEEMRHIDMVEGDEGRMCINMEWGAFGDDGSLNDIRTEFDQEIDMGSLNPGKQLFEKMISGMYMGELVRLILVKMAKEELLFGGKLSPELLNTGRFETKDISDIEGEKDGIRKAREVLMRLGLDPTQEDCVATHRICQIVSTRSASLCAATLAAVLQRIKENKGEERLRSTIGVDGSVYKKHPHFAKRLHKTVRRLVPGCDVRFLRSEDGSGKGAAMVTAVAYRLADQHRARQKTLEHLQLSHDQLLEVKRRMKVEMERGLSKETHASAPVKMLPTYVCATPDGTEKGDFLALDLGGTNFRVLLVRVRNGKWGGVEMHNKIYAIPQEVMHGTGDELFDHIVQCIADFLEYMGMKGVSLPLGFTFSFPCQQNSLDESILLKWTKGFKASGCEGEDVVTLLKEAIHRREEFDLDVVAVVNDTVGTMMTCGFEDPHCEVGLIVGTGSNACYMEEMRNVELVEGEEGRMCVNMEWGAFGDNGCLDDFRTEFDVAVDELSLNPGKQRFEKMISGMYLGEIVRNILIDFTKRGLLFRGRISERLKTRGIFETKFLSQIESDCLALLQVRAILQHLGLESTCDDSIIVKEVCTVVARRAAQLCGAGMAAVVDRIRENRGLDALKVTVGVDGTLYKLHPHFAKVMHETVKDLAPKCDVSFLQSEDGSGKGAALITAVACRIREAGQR
UniProt Q92540: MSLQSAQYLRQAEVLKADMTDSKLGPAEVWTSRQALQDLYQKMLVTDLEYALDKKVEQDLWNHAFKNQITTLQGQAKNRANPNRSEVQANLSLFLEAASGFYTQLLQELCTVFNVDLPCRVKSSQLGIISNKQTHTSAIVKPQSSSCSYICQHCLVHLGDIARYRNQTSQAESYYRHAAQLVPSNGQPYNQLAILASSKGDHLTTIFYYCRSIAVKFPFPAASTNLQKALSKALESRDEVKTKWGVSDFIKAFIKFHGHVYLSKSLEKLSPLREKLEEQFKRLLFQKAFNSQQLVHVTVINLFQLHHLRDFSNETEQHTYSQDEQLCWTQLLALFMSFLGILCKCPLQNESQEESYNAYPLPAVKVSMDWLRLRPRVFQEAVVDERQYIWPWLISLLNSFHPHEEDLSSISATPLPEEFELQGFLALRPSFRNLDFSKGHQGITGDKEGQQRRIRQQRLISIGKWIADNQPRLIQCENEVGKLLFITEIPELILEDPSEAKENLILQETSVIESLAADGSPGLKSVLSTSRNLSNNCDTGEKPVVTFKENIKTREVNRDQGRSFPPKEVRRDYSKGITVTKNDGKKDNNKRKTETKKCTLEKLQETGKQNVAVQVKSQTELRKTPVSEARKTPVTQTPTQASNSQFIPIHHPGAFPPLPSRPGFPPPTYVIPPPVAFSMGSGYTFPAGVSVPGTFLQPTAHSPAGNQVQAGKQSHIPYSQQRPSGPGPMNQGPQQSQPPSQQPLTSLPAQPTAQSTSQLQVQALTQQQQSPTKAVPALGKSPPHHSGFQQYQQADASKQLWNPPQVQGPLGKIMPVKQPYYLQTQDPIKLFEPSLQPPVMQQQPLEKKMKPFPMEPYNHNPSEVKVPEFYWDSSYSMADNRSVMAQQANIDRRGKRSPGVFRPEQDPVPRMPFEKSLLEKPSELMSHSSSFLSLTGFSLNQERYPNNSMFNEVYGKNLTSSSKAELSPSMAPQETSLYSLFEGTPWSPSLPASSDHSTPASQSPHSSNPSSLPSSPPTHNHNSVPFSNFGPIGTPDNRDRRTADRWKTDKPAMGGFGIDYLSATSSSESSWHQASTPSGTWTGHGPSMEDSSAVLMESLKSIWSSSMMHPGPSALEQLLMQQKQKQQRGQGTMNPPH
UniProt Q15629: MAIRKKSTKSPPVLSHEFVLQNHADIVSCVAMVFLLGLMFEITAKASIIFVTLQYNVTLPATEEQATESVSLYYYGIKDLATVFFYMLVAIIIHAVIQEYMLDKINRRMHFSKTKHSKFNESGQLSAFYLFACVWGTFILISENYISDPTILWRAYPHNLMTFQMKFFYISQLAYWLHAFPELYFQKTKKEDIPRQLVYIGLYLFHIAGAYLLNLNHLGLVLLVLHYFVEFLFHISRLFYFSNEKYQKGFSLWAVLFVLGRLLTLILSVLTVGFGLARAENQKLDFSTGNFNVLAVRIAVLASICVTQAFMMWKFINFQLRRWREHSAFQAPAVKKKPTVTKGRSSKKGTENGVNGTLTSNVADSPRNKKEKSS
UniProt Q9NZJ0: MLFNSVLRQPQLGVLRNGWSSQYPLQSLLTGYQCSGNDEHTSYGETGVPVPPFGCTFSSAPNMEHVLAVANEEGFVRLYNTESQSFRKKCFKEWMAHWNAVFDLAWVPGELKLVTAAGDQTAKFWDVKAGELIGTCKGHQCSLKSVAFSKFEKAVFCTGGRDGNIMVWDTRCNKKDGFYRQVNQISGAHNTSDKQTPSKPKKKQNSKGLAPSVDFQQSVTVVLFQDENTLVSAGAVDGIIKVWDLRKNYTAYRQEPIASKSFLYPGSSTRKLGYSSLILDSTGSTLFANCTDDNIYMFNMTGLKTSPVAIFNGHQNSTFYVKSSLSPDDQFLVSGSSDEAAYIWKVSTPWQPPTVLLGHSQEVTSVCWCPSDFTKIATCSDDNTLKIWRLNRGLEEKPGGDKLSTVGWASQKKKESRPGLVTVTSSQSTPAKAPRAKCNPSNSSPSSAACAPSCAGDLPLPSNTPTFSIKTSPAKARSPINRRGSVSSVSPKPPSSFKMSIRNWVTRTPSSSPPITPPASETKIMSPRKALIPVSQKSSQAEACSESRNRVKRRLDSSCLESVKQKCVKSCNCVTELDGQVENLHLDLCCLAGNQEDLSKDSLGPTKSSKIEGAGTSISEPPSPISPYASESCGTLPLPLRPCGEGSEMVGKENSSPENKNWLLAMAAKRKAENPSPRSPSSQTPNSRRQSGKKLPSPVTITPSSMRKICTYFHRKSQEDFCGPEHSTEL
UniProt P63104: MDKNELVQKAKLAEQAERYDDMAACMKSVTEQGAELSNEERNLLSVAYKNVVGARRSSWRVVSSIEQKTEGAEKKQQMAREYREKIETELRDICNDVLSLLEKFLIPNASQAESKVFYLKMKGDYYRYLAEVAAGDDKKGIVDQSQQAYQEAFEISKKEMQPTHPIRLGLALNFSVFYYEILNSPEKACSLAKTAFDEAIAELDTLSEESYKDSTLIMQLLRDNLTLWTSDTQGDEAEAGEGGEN
UniProt P49821, whole entry: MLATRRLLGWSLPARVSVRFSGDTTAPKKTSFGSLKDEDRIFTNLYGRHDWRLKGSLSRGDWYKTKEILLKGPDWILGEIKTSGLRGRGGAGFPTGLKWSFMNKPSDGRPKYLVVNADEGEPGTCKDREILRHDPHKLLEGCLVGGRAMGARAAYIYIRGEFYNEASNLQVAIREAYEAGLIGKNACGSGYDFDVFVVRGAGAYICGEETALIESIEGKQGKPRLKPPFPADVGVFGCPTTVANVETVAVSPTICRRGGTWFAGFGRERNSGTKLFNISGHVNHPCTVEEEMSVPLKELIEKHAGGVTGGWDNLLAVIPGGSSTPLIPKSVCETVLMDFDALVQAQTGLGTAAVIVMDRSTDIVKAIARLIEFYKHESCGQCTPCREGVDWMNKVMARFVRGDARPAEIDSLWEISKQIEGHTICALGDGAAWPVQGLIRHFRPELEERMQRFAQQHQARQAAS
UniProt O95260: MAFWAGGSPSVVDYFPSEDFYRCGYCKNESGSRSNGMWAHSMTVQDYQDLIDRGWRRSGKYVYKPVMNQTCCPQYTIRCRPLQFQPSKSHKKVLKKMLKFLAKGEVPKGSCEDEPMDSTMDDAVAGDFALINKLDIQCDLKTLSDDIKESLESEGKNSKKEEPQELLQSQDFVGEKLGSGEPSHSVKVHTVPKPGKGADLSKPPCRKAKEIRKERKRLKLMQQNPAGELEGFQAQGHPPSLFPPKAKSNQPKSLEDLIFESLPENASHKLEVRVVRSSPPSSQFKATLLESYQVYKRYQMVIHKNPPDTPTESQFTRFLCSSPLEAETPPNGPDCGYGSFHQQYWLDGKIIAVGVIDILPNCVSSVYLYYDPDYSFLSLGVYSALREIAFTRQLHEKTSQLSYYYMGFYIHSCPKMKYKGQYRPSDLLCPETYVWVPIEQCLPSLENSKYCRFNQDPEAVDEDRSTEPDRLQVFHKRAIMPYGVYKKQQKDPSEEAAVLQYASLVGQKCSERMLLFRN
UniProt Q02338: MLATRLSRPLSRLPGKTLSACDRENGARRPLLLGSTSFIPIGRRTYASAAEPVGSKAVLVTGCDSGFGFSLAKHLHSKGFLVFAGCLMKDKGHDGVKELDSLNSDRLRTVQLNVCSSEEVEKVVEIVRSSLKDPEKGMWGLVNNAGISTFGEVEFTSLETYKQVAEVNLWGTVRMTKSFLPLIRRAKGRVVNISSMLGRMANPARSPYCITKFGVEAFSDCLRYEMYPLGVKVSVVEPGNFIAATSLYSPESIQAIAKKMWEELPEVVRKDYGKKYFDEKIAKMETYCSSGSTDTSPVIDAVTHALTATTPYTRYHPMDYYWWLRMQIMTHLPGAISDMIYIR

± gives the standard deviation of the averaged measurements. This is one part of the list.

For the target “E7EW84 and related entries (UniProt Q8TAG9)”, the NP40-soluble protein abundance was found to be 0.9794 ± 0.0039 (concentration: 0.1mM); 0.996 ± 0.039 (concentration: 0.5mM); 0.959 ± 0.064 (concentration: 1mM); 1.08 ± 0.082 (concentration: 2mM); 1.01 ± 0.12 (concentration: 4mM); 0.897 ± 0.022 (concentration: 6mM). For the same target, the NP40-soluble protein abundance reads like this: (concentration: 8mM) 0.882 ± 0.025; (concentration: 10mM) 0.966 ± 0.18.
In the case of “E7ETP9 and related entries (UniProt Q9UQV4)”, the NP40-soluble protein abundance (concentration: 0.1mM) was found to be 0.882 ± 0.15; the NP40-soluble protein abundance (concentration: 0.5mM) came out at 0.796 ± 0.068; the NP40-soluble protein abundance (concentration: 1mM) amounted to 0.898 ± 0.14; the NP40-soluble protein abundance (concentration: 2mM) was 0.842 ± 0.13; the NP40-soluble protein abundance (concentration: 4mM) is 0.831 ± 0.13; the NP40-soluble protein abundance (concentration: 6mM) came to 0.833 ± 0.11. Moreover, the NP40-soluble protein abundance reads like this: (concentration: 8mM) 0.818 ± 0.088; (concentration: 10mM) 0.881 ± 0.17.
For the target “E7EXA6 and related entries (UniProt Q8WVB6)”, the NP40-soluble protein abundance by setting is: (concentration: 0.1mM) 1.11 ± 0.045; (concentration: 0.5mM) 1.23 ± 0.11; (concentration: 1mM) 1.22 ± 0.12; (concentration: 2mM) 1.31 ± 0.18; (concentration: 4mM) 1.32 ± 0.2; (concentration: 6mM) 1.32 ± 0.19. Also, the NP40-soluble protein abundance (concentration: 8mM) came out at 1.31 ± 0.19 and the NP40-soluble protein abundance (concentration: 10mM) was 1.29 ± 0.17.
Turning to E7EQ69 (UniProt Q9GZZ1), the NP40-soluble protein abundance by setting is: (concentration: 0.1mM) 1 ± 0.12; (concentration: 0.5mM) 0.984 ± 0.065; (concentration: 1mM) 0.956 ± 0.028; (concentration: 2mM) 0.995 ± 0.11; (concentration: 4mM) 1.01 ± 0.083; (concentration: 6mM) 0.991 ± 0.045. Besides, the NP40-soluble protein abundance runs as follows: (concentration: 8mM) 0.902 ± 0.07; (concentration: 10mM) 0.94 ± 0.099.
Turning to UniProt E9PSI1, the NP40-soluble protein abundance was 1 ± 0.09 (concentration: 0.1mM); 1.03 ± 0.14 (concentration: 0.5mM); 1.02 ± 0.0027 (concentration: 1mM); 0.983 ± 0.056 (concentration: 2mM); 0.948 ± 0.047 (concentration: 4mM); 1.01 ± 0.1 (concentration: 6mM). Further, the NP40-soluble protein abundance reads like this: (concentration: 8mM) 1.06 ± 0.043; (concentration: 10mM) 1.09 ± 0.077.
“E9PC69 and related entries (UniProt Q7KZI7)”: the NP40-soluble protein abundance amounted to 1.04 ± 0.074 (concentration: 0.1mM); 1.09 ± 0.17 (concentration: 0.5mM); 1.17 ± 0.28 (concentration: 1mM); 1.17 ± 0.24 (concentration: 2mM); 1.18 ± 0.27 (concentration: 4mM); 1.16 ± 0.22 (concentration: 6mM). The NP40-soluble protein abundance reads like this: (concentration: 8mM) 1.18 ± 0.35; (concentration: 10mM) 1.16 ± 0.3.
For the target “E9PB90 and related entries (UniProt P52789)”, the NP40-soluble protein abundance runs as follows: (concentration: 0.1mM) 1.05 ± 0.043; (concentration: 0.5mM) 1.03 ± 0.061; (concentration: 1mM) 0.978 ± 0.035; (concentration: 2mM) 0.949 ± 0.07; (concentration: 4mM) 0.983 ± 0.064; (concentration: 6mM) 0.932 ± 0.036. For the same target, the NP40-soluble protein abundance is, setting by setting: (concentration: 8mM) 0.938 ± 0.014; (concentration: 10mM) 0.876 ± 0.087.
For the target “G3V4E1 and related entries (UniProt P23743)”, the NP40-soluble protein abundance reads like this: (concentration: 0.1mM) 1.12 ± 0.084; (concentration: 0.5mM) 1.14 ± 0.11; (concentration: 1mM) 1.08 ± 0.096; (concentration: 2mM) 1.07 ± 0.13; (concentration: 4mM) 1.1 ± 0.11; (concentration: 6mM) 1.06 ± 0.074. Further, the NP40-soluble protein abundance is 1.03 ± 0.07 (concentration: 8mM) and 0.979 ± 0.088 (concentration: 10mM).
For “F8VXU5 and related entries (UniProt Q9UBQ0)”, the NP40-soluble protein abundance (concentration: 0.1mM) turned out to be 0.989 ± 0.047; the NP40-soluble protein abundance (concentration: 0.5mM) is 0.992 ± 0.071; the NP40-soluble protein abundance (concentration: 1mM) worked out at 0.935 ± 0.049; the NP40-soluble protein abundance (concentration: 2mM) amounted to 0.884 ± 0.096; the NP40-soluble protein abundance (concentration: 4mM) worked out at 0.895 ± 0.07; the NP40-soluble protein abundance (concentration: 6mM) turned out to be 0.893 ± 0.073. Moreover, the NP40-soluble protein abundance amounted to 0.853 ± 0.035 (concentration: 8mM) and 0.822 ± 0.062 (concentration: 10mM).
For the target “E9PD50 and related entries (UniProt Q92540)”, the NP40-soluble protein abundance (concentration: 0.1mM) was 0.952 ± 0.035; the NP40-soluble protein abundance (concentration: 0.5mM) stood at 0.96 ± 0.067; the NP40-soluble protein abundance (concentration: 1mM) stood at 0.962 ± 0.084; the NP40-soluble protein abundance (concentration: 2mM) turned out to be 0.991 ± 0.088; the NP40-soluble protein abundance (concentration: 4mM) worked out at 0.951 ± 0.065; the NP40-soluble protein abundance (concentration: 6mM) was determined as 0.987 ± 0.091. Also, the NP40-soluble protein abundance amounted to 0.982 ± 0.08 (concentration: 8mM) and 0.986 ± 0.053 (concentration: 10mM).
Regarding “G3XAN4 and related entries (UniProt Q15629)”, the NP40-soluble protein abundance is 0.776 ± 0.028 (concentration: 0.1mM); 0.785 ± 0.098 (concentration: 0.5mM); 0.911 ± 0.14 (concentration: 1mM); 0.819 ± 0.16 (concentration: 2mM); 0.8 ± 0.15 (concentration: 4mM); 0.783 ± 0.23 (concentration: 6mM). Also, the NP40-soluble protein abundance runs as follows: (concentration: 8mM) 0.898 ± 0.19; (concentration: 10mM) 0.905 ± 0.16.
“E7EQV9 and related entries (UniProt P61313)”: the NP40-soluble protein abundance runs as follows: (concentration: 0.1mM) 1.04 ± 0.065; (concentration: 0.5mM) 1.09 ± 0.14; (concentration: 1mM) 1.08 ± 0.22; (concentration: 2mM) 1.03 ± 0.3; (concentration: 4mM) 0.902 ± 0.3; (concentration: 6mM) 0.842 ± 0.25. In addition, the NP40-soluble protein abundance was 0.571 ± 0.19 (concentration: 8mM) and 0.897 ± 0.28 (concentration: 10mM).
As for “F5GZ90 and related entries (UniProt Q9NZJ0)”, the NP40-soluble protein abundance (concentration: 0.1mM) was found to be 1.06 ± 0.047; the NP40-soluble protein abundance (concentration: 0.5mM) came to 1.06 ± 0.1; the NP40-soluble protein abundance (concentration: 1mM) amounted to 0.981 ± 0.093; the NP40-soluble protein abundance (concentration: 2mM) was found to be 1 ± 0.11; the NP40-soluble protein abundance (concentration: 4mM) was 1.01 ± 0.081; the NP40-soluble protein abundance (concentration: 6mM) came out at 0.991 ± 0.11. Further, the NP40-soluble protein abundance (concentration: 8mM) amounted to 0.981 ± 0.053 and the NP40-soluble protein abundance (concentration: 10mM) was found to be 0.958 ± 0.086.
Take “E7EVZ2 and related entries (UniProt P63104)”: the NP40-soluble protein abundance (concentration: 0.1mM) was determined as 0.783 ± 0.072; the NP40-soluble protein abundance (concentration: 0.5mM) worked out at 0.766 ± 0.03; the NP40-soluble protein abundance (concentration: 1mM) turned out to be 0.93 ± 0.12; the NP40-soluble protein abundance (concentration: 2mM) was determined as 0.916 ± 0.023; the NP40-soluble protein abundance (concentration: 4mM) was determined as 0.882 ± 0.042; the NP40-soluble protein abundance (concentration: 6mM) came to 0.913 ± 0.029. Besides, the NP40-soluble protein abundance (concentration: 8mM) stood at 0.851 ± 0.098 and the NP40-soluble protein abundance (concentration: 10mM) came out at 1 ± 0.11.
Take “G3V0I5 and related entries (UniProt P49821)”: the NP40-soluble protein abundance came to 1.07 ± 0.12 (concentration: 0.1mM); 1.1 ± 0.15 (concentration: 0.5mM); 1.09 ± 0.15 (concentration: 1mM); 1.16 ± 0.19 (concentration: 2mM); 1.15 ± 0.19 (concentration: 4mM); 1.14 ± 0.2 (concentration: 6mM). Besides, the NP40-soluble protein abundance runs as follows: (concentration: 8mM) 1.13 ± 0.17; (concentration: 10mM) 1.11 ± 0.18.
Regarding “F5GXE4 and related entries (UniProt O95260)”, the NP40-soluble protein abundance by setting is: (concentration: 0.1mM) 0.995 ± 0.01; (concentration: 0.5mM) 1.01 ± 0.012; (concentration: 1mM) 0.963 ± 0.028; (concentration: 2mM) 0.935 ± 0.039; (concentration: 4mM) 0.977 ± 0.11; (concentration: 6mM) 0.97 ± 0.049. Besides, the NP40-soluble protein abundance (concentration: 8mM) was 0.963 ± 0.025 and the NP40-soluble protein abundance (concentration: 10mM) amounted to 0.964 ± 0.041.
On to “E9PCG9 and related entries (UniProt Q02338)”, for which the NP40-soluble protein abundance (concentration: 0.1mM) is 1.07 ± 0.039; the NP40-soluble protein abundance (concentration: 0.5mM) amounted to 1.1 ± 0.063; the NP40-soluble protein abundance (concentration: 1mM) was found to be 1 ± 0.035; the NP40-soluble protein abundance (concentration: 2mM) is 1.02 ± 0.05; the NP40-soluble protein abundance (concentration: 4mM) was 0.978 ± 0.11; the NP40-soluble protein abundance (concentration: 6mM) came to 1.01 ± 0.092. Further, the NP40-soluble protein abundance by setting is: (concentration: 8mM) 0.965 ± 0.13; (concentration: 10mM) 0.934 ± 0.096.

The values above are taken from the supplement of paper PMC6411743.
